Primary screen of a compound library

Chains of the proteins cited; added tags and fusions are not shown.
UniProt E9BF75, entry or part of it: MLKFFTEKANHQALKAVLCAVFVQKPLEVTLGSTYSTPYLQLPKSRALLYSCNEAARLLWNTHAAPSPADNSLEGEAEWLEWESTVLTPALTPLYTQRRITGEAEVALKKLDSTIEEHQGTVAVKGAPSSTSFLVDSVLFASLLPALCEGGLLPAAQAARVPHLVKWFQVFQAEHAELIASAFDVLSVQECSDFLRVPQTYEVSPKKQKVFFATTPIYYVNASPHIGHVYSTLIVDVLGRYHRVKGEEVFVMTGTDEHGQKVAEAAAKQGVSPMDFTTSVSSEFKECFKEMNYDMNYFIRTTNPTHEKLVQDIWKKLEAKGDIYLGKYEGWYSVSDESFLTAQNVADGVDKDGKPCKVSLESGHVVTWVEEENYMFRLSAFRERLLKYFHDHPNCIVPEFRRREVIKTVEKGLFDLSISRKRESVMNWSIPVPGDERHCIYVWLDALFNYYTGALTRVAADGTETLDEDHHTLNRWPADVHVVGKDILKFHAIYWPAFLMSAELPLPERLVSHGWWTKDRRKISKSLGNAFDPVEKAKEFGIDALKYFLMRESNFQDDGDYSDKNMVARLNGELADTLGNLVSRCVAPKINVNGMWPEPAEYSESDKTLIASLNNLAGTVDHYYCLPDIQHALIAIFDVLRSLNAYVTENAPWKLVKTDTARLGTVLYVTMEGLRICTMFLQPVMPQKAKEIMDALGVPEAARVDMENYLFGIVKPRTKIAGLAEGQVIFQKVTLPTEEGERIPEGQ

Results are percentages, as filed. The record does not define 0% and 100%; most values in the screen are far below 50% and negative numbers occur (in some assays of this library far below -100). This is an unselected part of the compounds tested. A dash means the value is not listed here; it may have been measured.

Mtb heat-shock: 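Assay on Mycobacterium tuberculosis, filed only as a heat shock assay from Cornell; the read-out is not stated. The concentration is filed as 10 mM, unlikely as a test dose, so the dose is not known. Higher reads as stronger inhibition (inferred: compounds with an IC50 in retests scored well above the rest). Of about 69,000 compounds tested this way, about 930 (1.4%) reached 50% or more in at least one test.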
LdMetRS: 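Primary screen of methionyl-tRNA synthetase; the read-out is not stated. Target: Methionyl-tRNA synthetase (putative), Leishmania donovani (UniProt E9BF75). The test concentration is not given. Values are per cent inhibition. About 68,000 compounds were tested under these conditions; 0.035% (about 24) showed 50% or more at least once.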
Mtb growth Cornell: 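Whole-cell assay for inhibitors of Mycobacterium tuberculosis growth, labelled Cornell in the record; the read-out is not stated. The concentration is filed as 10 mM, unlikely as a test dose, so the dose is not known. Higher means stronger inhibition (inferred from two other growth screens of the library). Of about 53,000 compounds tested this way, about 900 (1.7%) reached 50% or more in at least one test.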

compound	Mtb heat-shock	LdMetRS	Mtb growth Cornell
CC(=O)N1CCC(c2cc(Nc3ncccn3)nc(C)n2)C1 (centres undefined)	-0.7669%	18.77%	-7.302%
COc1ccc(CNc2c(N3CCN(C(C)=O)CC3)c(=O)c2=O)cc1	-15.84%	17.16%	20.53%
CC(C)CN1CCc2[nH]nc(C(=O)N3CCCC3)c2C1	-	0%	-
CN(C)CCO[C@H]1CN(Cc2ccoc2)[C@@H]2COC[C@H]12	-	4.444%	-
CC(C)c1nnc2n1CCN(C(=O)c1ccc3c(c1)CCC3)C2	-14.4%	4.217%	-
O=C(NCc1ccco1)Nc1cccc(S(=O)(=O)C(F)F)c1	31.42%	5.177%	41.9%
Cc1c(C(C)N)cnn1-c1cccc2ccccc12 (centres undefined)	12.92%	12.24%	6.871%
Cc1cc(C)n(CC(=O)NCc2ccccn2)n1	10.34%	9.832%	24.61%
O=C(c1cnc2c(c1)CCC2)N1CCCC(CO)(CC2CC2)C1 (centres undefined)	-29.11%	7.666%	-
CC(C)[C@@H]1CN(Cc2cnc(C3CCCCC3)nc2)C[C@H]1C(=O)O	-18.39%	7.796%	-24.85%
Cc1ccsc1C(=O)N1CC(C(=O)N2CCCC2)C2(CCOCC2)C1 (centres undefined)	14.19%	11.35%	-24.36%
O=C(Nc1ccccn1)c1nc(N2CCCC2)ncc1Cl	-2.485%	-	-
CC(C)Cc1cc(C(=O)N2CCCN(c3cccnn3)CC2)[nH]n1	-31.41%	21.09%	-1.217%
CCc1[nH]c(C2(N)CCCC2)nc(=O)c1C	-27.19%	7.311%	-29.83%
CC(C)CC(C#N)NC(=O)CCNC(=O)C(C)(C)C (centres undefined)	-20.13%	12.45%	-
Cc1cc(-c2cnc(N3CCOCC3)nc2-c2ccc(C)s2)on1	-6.218%	4%	-
COC(=O)N(C)CCCC(=O)Nc1[nH]nc(-c2ccncc2)c1C	-13.2%	7.652%	12.84%
Cc1cccc(CN2CC[C@@H]3[C@@H](CO[C@H]3CNc3ncccn3)C2)n1	-	12.33%	-
Cc1cc(C2CCCN2C(=O)NCc2c(C)cc(C)[nH]c2=O)on1 (centres undefined)	-10.31%	17.09%	-47.79%
CN1CCN(CCO)C(=O)C12CCN(Cc1ccsc1)CC2	-	14.48%	-
CN1CC2(CCN(Cc3cc(Cl)ccc3OCC(=O)O)CC2)OC1=O	1.16%	12.03%	20.2%
Cc1cnccc1CNCc1ccc(OC23CCCN(CC2)C3)cc1 (centres undefined)	-9.053%	26.67%	14.28%
Cn1c2c(ccc1=O)CC(NC(=O)Cc1ccsc1)CC2 (centres undefined)	4.768%	12.2%	3.371%
c1ccc2c(c1)CC(Cc1cc(N3CCCC3)cnn1)CCO2 (centres undefined)	-13.86%	22.92%	17.87%
O=C(O)C(F)(F)F.[H][C@@]12CN(C(=O)CCOC)C[C@]1([H])C(=O)N(Cc1cccnc1)C2	-4.669%	-	9.901%
CCSCC(C)NCc1ccccc1-n1ccnc1 (centres undefined)	4.071%	10.03%	-5.079%
COc1cccc(CN2CCN(c3ccc4nncn4n3)C(C)C2)c1 (centres undefined)	31.74%	14.98%	-5.189%
Cc1nc(C(C)C)sc1C(=O)N(C)CCCc1cnn(C)c1	4.876%	5.459%	-21.12%
CCCc1cc(CN(C)C2CCSCC2)n[nH]1	7.973%	14.12%	10.38%
CC(C)(C)C(=O)NCCC(=O)NS(=O)(=O)c1cccnc1	-33.52%	5.013%	-28.22%
CCC(CN1CCCC1)n1cncc1-c1cnn(Cc2ccccc2)c1 (centres undefined)	-	17.19%	-
CCC(CC)CNCC1(S(C)(=O)=O)CCOCC1	1.821%	14.95%	25.71%
O=S(=O)(C1CC1)N1CCO[C@H]2[C@H](OCCN3CCCC3)CC[C@@H]21	-	10.46%	-
Cc1nc2c(NC(CC(C)(C)C)c3cccnc3)ncnc2o1 (centres undefined)	-23.27%	7.035%	-7.649%
COc1cccc(CC2(CO)CCCN(c3nccs3)C2)c1 (centres undefined)	1.188%	16.08%	17.74%
COc1ccc(F)c(CN2CCCC(O)(CNCc3ccoc3)C2=O)c1 (centres undefined)	1.955%	3.351%	5.389%
Cc1cnc2n1CCN(C)C21CCN(C(=O)CC(C)C)CC1.O=C(O)C(F)(F)F	8.734%	-	22.03%
Cc1nc(C)n(CC2CCCN2CCOc2ccc(C#N)cc2)n1 (centres undefined)	14.51%	7.042%	5.756%
CCn1nc(C)c2nc(C)nc(NCCc3ccc(C)cc3)c21	69.41%	16.07%	87.9%
Cc1ccc(S(=O)(=O)Nc2ccc(N3CCOCC3)cn2)cc1	1.907%	13.65%	31.15%
CCOc1ccc(NCc2cnc(N3CCN(C)CC3)nc2)cn1	-5.598%	13.65%	-
Cc1ccc(NC2(C(=O)NCCCc3c(C)n[nH]c3C)CCCC2)cc1	1.552%	3.377%	-11.92%
CN(Cc1nc(C2CC2)no1)C(=O)c1cccc(CC2CCNCC2)c1	-15.71%	22.16%	-14.37%
COC(=O)c1ccc(N2CCN(C(=O)c3ccc(O)nc3)C(C)C2)cc1 (centres undefined)	-16.84%	11.17%	-
CC(=O)c1cc2ncc(C(=O)NC3CCCC3)cc2[nH]1	40.3%	16.39%	-19.4%
CC(NCCCn1ccnc1)c1ccc(N2CCOC2=O)cc1 (centres undefined)	-33.65%	8.521%	-34.09%
CN(C)c1cccc(C(=O)N2C[C@H]3CC[C@@H]2CN(C(=O)C2CCC2)C3)c1	-	17.39%	-
O=C(O)C(F)(F)F.[H][C@@]12COC[C@]1(CNC(=O)c1ccsc1)CN(Cc1cc(C)on1)C2	-18.57%	-	10.75%
c1ccc(COC2CCN(Cc3cc4n(n3)CCCNC4)CC2)nc1	7.896%	16.95%	-26.21%
NC(=O)N1CCCN(CCc2nc(-c3cccc(Cl)c3)no2)CC1	20.53%	13.04%	-18.62%
CC(C)(C)c1cc(NC(=O)C2COCCO2)n(-c2ccccn2)n1 (centres undefined)	6.06%	4.396%	-
CC(=O)Nc1ncc(S(=O)(=O)Nc2cccc(O)c2)s1	-4.43%	17.84%	-
CC1COCCN1C(=O)c1ccc(=O)n(CCOc2ccccc2)n1 (centres undefined)	-20.84%	12.24%	16.69%
Clc1snnc1CN(Cc1cccs1)C1CC1	-15.32%	9.214%	8.626%
O=C(O)C(F)(F)F.O=C(O)C(F)(F)F.c1cncc(OCC2CN(Cc3ccsc3)Cc3nccn3C2)c1 (centres undefined)	-18.26%	-	26.59%
CC(C)N(C(=O)c1ccnc(OCC(F)(F)F)c1)c1cccnc1	-29.93%	8.901%	17.42%
CCOC(C)c1nccn1CCC(=O)Nc1cc(C)on1 (centres undefined)	0.9144%	-12.59%	0.7964%
CO[C@@H]1c2ccccc2C2(CCN(C(=O)CNS(C)(=O)=O)CC2)[C@H]1O	-3.585%	0%	-29.53%
CN1CCC2(COCc3cnc(-c4ccccc4)nc32)C1.O=C(O)C(F)(F)F (centres undefined)	-21.69%	-	11.61%
CCc1oc(C(=O)NCCc2nc(C(=O)O)cs2)cc1CN1CCCC1	-0.6744%	4.416%	-0.02372%
[H][C@]12CC[C@]([H])(CN(C(=O)C3CCC3)C1)N(C(=O)c1cccc(C#N)c1)C2	-10.1%	-	14.58%
c1ccc(-c2nc3c(c(NCc4n[nH]c5c4CCC5)n2)CCNC3)cc1	105.2%	16.54%	-
Cn1ccnc1CNC(=O)c1cncc(C2CCNCC2)n1	-	12.79%	-
CN(C)C(=O)c1cnc2n1CCN(Cc1ccncc1)C2	-12.3%	5.473%	-8.199%
CC(=O)N1CCC2(CC1)COCCN2CCN(C)C	-	14.64%	-
O=C(Cn1nc(C(F)(F)F)c(Br)c1C1CC1)N1CCOCC1	-1.787%	12.9%	-25.74%
Cc1noc(C)c1CN1CC[C@H]2OCC[C@@]2(C(=O)N(C)C)C1	-	7.333%	-
O=C(c1ccco1)N1Cc2nccn2CC(Cn2ncccc2=O)C1 (centres undefined)	-2.963%	5.205%	45.42%
CCOC(=O)CC1CCCCN1C(=O)c1cc(C)on1 (centres undefined)	-16.28%	3.896%	35.81%
O=C(NCCCn1ccnc1)C1CCC(=O)N1Cc1cccs1 (centres undefined)	4.635%	12.63%	27.8%
Cc1ccc(C)n1C(C)C(=O)N1CCCN(Cc2cscn2)CC1 (centres undefined)	-7.358%	14.21%	-
CCC(NC1CSCCSC1)c1ccc(S(C)(=O)=O)cc1 (centres undefined)	-19.14%	9.661%	-
Cc1nc(Nc2nnc(C)s2)cc(C2CCCN2c2ccncc2)n1 (centres undefined)	0.6435%	13.59%	-13.84%
Fc1cccc(CN2CCC[C@@H](Cn3nnc(-c4ccccn4)n3)C2)c1	6.833%	12.21%	13.46%

Once more, the final 6:

compound,Mtb heat-shock,LdMetRS,Mtb growth Cornell
CCOC(=O)CC1CCCCN1C(=O)c1cc(C)on1 (centres undefined),-16.28%,3.896%,35.81%
O=C(NCCCn1ccnc1)C1CCC(=O)N1Cc1cccs1 (centres undefined),4.635%,12.63%,27.8%
Cc1ccc(C)n1C(C)C(=O)N1CCCN(Cc2cscn2)CC1 (centres undefined),-7.358%,14.21%,-
CCC(NC1CSCCSC1)c1ccc(S(C)(=O)=O)cc1 (centres undefined),-19.14%,9.661%,-
Cc1nc(Nc2nnc(C)s2)cc(C2CCCN2c2ccncc2)n1 (centres undefined),0.6435%,13.59%,-13.84%
Fc1cccc(CN2CCC[C@@H](Cn3nnc(-c4ccccn4)n3)C2)c1,6.833%,12.21%,13.46%

Measurements from “University of Dundee, Small-Polar-MMV Screening Library” (2021), ChEMBL document CHEMBL3988442.